Paper PMC6386368, “Multimerization of Homo sapiens TRPA1 ion channel cytoplasmic domains” (PLoS ONE, 2019)
No constants are given. Whether binding was seen depends on the method and setting. For some of these results: In cells and extracts the contact can be indirect. Some binding calls cover weakened binding; strength is not graded here. Sequences can lack the tags named with a protein.

T1: MBPCC1: maltose-binding protein fusion of the human TRPA1 C-terminal coiled-coil CC1 (amino acids A1036-T1078) (human) (UniProt O75762)
T1 sequence: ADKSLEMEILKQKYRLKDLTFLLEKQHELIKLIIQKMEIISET


Legend:
[1] = target: T1, MBPCC1: maltose-binding protein fusion of the human TRPA1 C-terminal coiled-coil CC1 (amino acids A1036-T1078) (human); assay: pull-down; amylose resin co-purification from cleared lysate of bacteria co-expressing ARD and MBPCC1; incubation and 4 washes at 37 C, Buffer A1T, with or without IP6 and/or AITC; anti-His Western blot
[2] = target: T1, MBPCC1: maltose-binding protein fusion of the human TRPA1 C-terminal coiled-coil CC1 (amino acids A1036-T1078) (human); assay: pull-down; amylose resin co-purification from cleared lysate of bacteria co-expressing ARD and MBPCC1; incubation and 4 washes at 4 C, Buffer A1T, with or without IP6 and/or AITC; anti-His Western blot
[3] = target: MBPCC2: maltose-binding protein fusion of human TRPA1 amino acids D1082-K1113 (CC2) (human) (UniProt O75762); assay: SEC; MBPCC2 alone, absence or presence of IP6; Superdex 200 Increase, Buffer A1T (150 NaCl, 20 TrisHCl, pH 7.8, 2 mM TCEP); both purified
[4] = target: T1, MBPCC1: maltose-binding protein fusion of the human TRPA1 C-terminal coiled-coil CC1 (amino acids A1036-T1078) (human); assay: SEC; purified MBPCC1 at a low concentration incubated with MBPCC2 and run together, absence or presence of IP6; Superdex 200 Increase, Buffer A1T; both purified

binding [3]	Binder	binding [1]	binding [2]	binding [4]
–	TRPA1 ARD construct (N-terminal ankyrin repeat domains, amino acids 446-639) (domain or fragment, human, UniProt O75762 446-639, looked up, human TRPA1 ankyrin repeat domains with resolvable density in the cryoEM structure, amino acids 446-639; Cloned into pET28b (Nhe I and Sac I) in frame with an N-terminal poly-histidine tag; also called ARDs; N-terminal ARD; source: E. coli BL21(DE3), co-expressed with MBPCC1, in cleared lysate; not shown: poly-histidine, N-terminal, kept) KKSPLHFAASYGRINTCQRLLQDISDTRLLNEGDLHGMTPLHLAAKNGHDKVVQLLLKKGALFLSDHNGWTALHHASMGGYTQTMKVILDTNLKCTDRLDEDGNTALHFAAREGHAKAVALLLSHNADIVLNKQQASFLHLALHNKRKEVVLTIIRSKRWDECLKIFSHNSPGNKCPITEMIEYLPECMKVLLD	binds	binds	–
no binding	DSHCSFQDRFKKEQMEQRNSRWNTVLRAVKAK (domain or fragment, UniProt O75762 1082-1113) [MBPCC2: maltose-binding protein fusion of human TRPA1 amino acids D1082-K1113 (CC2)]	–	–	no binding
